Experimental data published in PubChem BioAssay AID485314 (National Center for Advancing Translational Sciences (NCATS), 2010).
Several values for one entry are separate records, joined by “and”; a condition that tells them apart may be missing. Equal entries are not always repeated. Out of some 340,000 compounds screened, about 4,500 (1.3%) were called active. The shares of active, inactive and inconclusive entries below differ from those in the screen. Calls follow the shape of the dose curve; as a rule, active = well fitted inhibition curve with a large enough effect; inconclusive = small, poorly fitted or top-dose-only effect, or another doubt; inactive = no such curve, though single readings can be large or run the other way. Potencies of inconclusive entries are doubtful fits and often do not repeat. Where a structure was tested more than once in an assay, its records may differ in their call.

What follows are compounds tested against DNA polymerase beta (Homo sapiens) (UniProt P06746) (assay: qHTS Assay for Inhibitors of DNA Polymerase Beta). Conditions: Pol beta primer extension/strand displacement, fluorescence kinetic; activity change, negative = inhibition: at 114 µM (top of the series).
Outline: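 Values derive from four-parameter Hill fits of normalized kinetic data: reads at 0 and 10 min following addition of 50 nM substrate to 10 nM Pol beta preincubated 15 min with compound.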
% is scaled to controls: 0 for no effect and ±100 for the full control effect; potency is read from the fitted curve at half-maximal effect.

Row | SMILES | activity change, negative = inhibition | Potency
1 | COC(=O)c1ccc(Oc2cc(C)nc(NCc3ccccc3)n2)cc1 | inactive: 1.23% | 
2 | CC1=CCC(C(=O)O)C(C(=O)Nc2ccc(-c3nc4ccc(C)cc4s3)cc2)C1 (stereo not drawn) |  | active: 15.8 µM
3 | O=C1c2[nH]nc(-c3ccccc3O)c2C(c2cccc(OCc3ccccc3)c2)N1CCO (stereo not drawn) |  | inconclusive: 89.1 µM [inhibitor, single point]
4 | Cc1ccc(-n2cccc2/C=C2\C(=N)N3N=C(c4ccco4)SC3=NC2=O)cc1 |  | active: 10 µM
5 | COc1cc(S(=O)(=O)N2CCC(O)(c3cccc(C(F)(F)F)c3)CC2)ccc1-n1cnnn1 |  | inconclusive: 89.1 µM [inhibitor, single point]
6 | O=C(C1CC1)N1CCC(c2nc(-c3ccc(S(=O)(=O)N4CCCC4)cc3)no2)CC1 |  | inconclusive: 0.199 µM [inhibitor, full curve]
7 | NC(=O)c1nc(Nc2ccccc2)sc1NC(=O)c1ccccc1Br | inactive: -4.14% | 
8 | COc1cccc(Nc2cc(C)nc3nc(-c4ccc(Cl)cc4)nn23)c1 |  | inconclusive: 10 µM [inhibitor, full curve]
9 | Cc1nn2c(=O)cc(COc3ccc(/C=C(\C#N)C(=O)Nc4ccc(F)cc4)cc3)nc2s1 |  | inconclusive: 2.82 µM [inhibitor, full curve, poor fit]
10 | COc1cccc(C2CC(=O)NC3=C2C(=O)CCC3)c1 (stereo not drawn) | inactive: 1.96% | 
11 | Nc1cc([N+](=O)[O-])ccc1N1C(=O)CCCC1=O |  | active: 39.8 µM
12 | O=C(O)c1ccc(Cl)c(S(=O)(=O)NCC2CCCO2)c1 (stereo not drawn) | inactive: -11.9% | 
13 | Cc1nc2c(c(C)c1CCC(=O)NCc1ccccc1)c(=O)n(C)c(=O)n2C | inactive: 20.9% | 
14 | O=C(NCc1nc2ccccc2[nH]1)C1=C[C@H](C2CCCCC2)C[C@H](OCc2ccc(CO)cc2)O1 |  | inconclusive: 89.1 µM [inhibitor, single point]
15 | CC(C)(C)c1ccc(OCC(=O)Nc2ccc(S(=O)(=O)Nc3ncccn3)cc2)cc1 |  | inconclusive: 70.8 µM [inhibitor, single point]
16 | CC(C)C(=O)NC(c1ccc(Cl)cc1Cl)c1ccc2cccnc2c1O (stereo not drawn) |  | inconclusive: 56.2 µM [inhibitor, partial curve, poor fit]
17 | CC(C)(C)OC(=O)NNC(=O)c1cccs1 | inactive: 14.7% | 
18 | Cc1nnc(N/N=C/c2ccc(O)c([N+](=O)[O-])c2)[nH]c1=O | inactive: -1.95% | 
19 | Cc1sc2nc(SCC(=O)N(C)C)[nH]c(=O)c2c1C |  | inconclusive: 3.98 µM [inhibitor, full curve, poor fit]
20 | CCOC(=O)c1cc(NC(=O)Nc2ccccc2OC)c(C)nc1C |  | inconclusive: 89.1 µM [inhibitor, single point]
21 | Cc1ccc(OCC(=O)Nc2ccc(Cl)c(-c3nc4ncccc4o3)c2)c(C)c1 |  | inconclusive: 89.1 µM [inhibitor, single point]
22 | Cc1cn2c(=O)cc(COc3ccc(Cl)cc3)nc2s1 | inactive: 6.39% | 
23 | C=CCn1cccc(C(=O)Nc2ccc(OC)cc2)c1=O |  | inconclusive: 100 µM [inhibitor, single point]

Row | SMILES | activity change, negative = inhibition | Potency
24 | O=C(O)CSc1c2c(nc3cc(C(=O)Nc4cccc(C(F)(F)F)c4)ccc13)CCC2 |  | inconclusive: 4.47 µM [inhibitor, single point]
25 | Nc1c(C(=O)Nc2ccc(S(=O)(=O)N3CCCC3)cc2)sc2nc3ccc(OC(F)(F)F)cc3cc12 |  | active: 28.2 µM
26 | O=[N+]([O-])c1cc(-c2ccc(/C=N/c3nc4ccccn4c3-c3ccco3)o2)ccc1Cl |  | inconclusive: 25.1 µM [inhibitor, single point]
27 | COCCNC(=O)c1c[nH]c2ccc(S(=O)(=O)Nc3ccc(F)cc3F)cc2c1=O |  | inconclusive: 50.1 µM [inhibitor, partial curve]
28 | COc1ccc(NC(=O)C2CCN(c3nnnn3-c3ccccc3)CC2)cc1 |  | inconclusive: 39.8 µM [inhibitor, single point]
29 | Cc1ccc(N2CC(NC(=O)c3cc4ccccc4o3)CC2=O)cc1C (stereo not drawn) | inactive: 2.83% | 
30 | O=C(CSc1nnc(-c2ccc(Cl)cc2)n1-c1ccccc1)N/N=C/c1ccccc1C(=O)O |  | inconclusive: 50.1 µM [inhibitor, partial curve, poor fit]
31 | Cc1ccc(OCC(=O)OC2=C(C(=O)c3ccccc3)N(C)S(=O)(=O)c3ccccc32)cc1 | inactive: -11.6% | 
32 | Cc1ccc(NC(=O)/C(C#N)=C/c2ccc(C)s2)c(C)c1 |  | inconclusive: 3.55 µM [inhibitor, partial curve]
33 | COc1ccc2c(c1)Cc1sc(NC(=O)c3cccc(C)c3)nc1-2 | inactive: 22.2% | 
34 | COc1ccc(-c2nn3c(=O)c(C)nnc3s2)cc1 |  | inconclusive: 39.8 µM [inhibitor, full curve, poor fit]
35 | Cc1ccc(NC(=O)c2ccc3c(c2)N(CC(=O)N2CCCCC2)C(=O)C(C)(C)O3)cc1 |  | inconclusive: 2.82 µM [inhibitor, full curve, poor fit]
36 | CC(C)N=C1NN=C(c2ccc(Cl)c(Cl)c2)CS1 |  | inconclusive: 35.5 µM [inhibitor, single point]
37 | Cc1ccc(N2CCN(c3ncccc3[N+](=O)[O-])CC2)c(C)c1 |  | inconclusive: 0.794 µM [inhibitor, full curve, poor fit]
38 | Cc1nnc(SCC(=O)Nc2nsc(-c3ccc(Cl)cc3)n2)s1 |  | inconclusive: 17.8 µM [inhibitor, full curve]
39 | Cc1cc(=O)c(C(=O)O)nn1-c1cccc(C(F)(F)F)c1 |  | inconclusive: 0.794 µM [inhibitor, full curve, poor fit]
40 | O=C(CSc1nc2[nH]ncc2c(=O)[nH]1)Nc1ccccc1 |  | inconclusive: 0.141 µM [inhibitor, full curve, poor fit]
41 | CC(=O)Nc1ccc(S(=O)(=O)NCCNS(=O)(=O)c2ccc(NC(C)=O)cc2)cc1 |  | inconclusive: 89.1 µM [inhibitor, single point]
42 | CN1CCc2cc3c(c4c2[C@H]1[C@H](O)c1ccccc1-4)OCO3 |  | active: 44.7 µM
43 | O=C(COC(=O)c1ccc([N+](=O)[O-])s1)NC(=O)NCc1ccccc1 |  | active: 7.94 µM
44 | COc1ccc(Cn2ccc3nc(C)c(C(=O)NCc4cccc(OC)c4)cc3c2=O)cc1 |  | inconclusive: 70.8 µM [inhibitor, partial curve]
45 | N#Cc1c(C(F)(F)F)cc(C2CC2)[nH]c1=O |  | inconclusive: 2.82 µM [inhibitor, single point]
46 | N#CC1=C2SCN(Cc3ccco3)CN2C(=O)CC1c1cccc2ccccc12 (stereo not drawn) |  | active: 44.7 µM

Grouped by structure, the compounds so far with a furan ring, fused or not.
Row | SMILES | activity change, negative = inhibition | Potency
4 | Cc1ccc(-n2cccc2/C=C2\C(=N)N3N=C(c4ccco4)SC3=NC2=O)cc1 |  | active: 10 µM
26 | O=[N+]([O-])c1cc(-c2ccc(/C=N/c3nc4ccccn4c3-c3ccco3)o2)ccc1Cl |  | inconclusive: 25.1 µM [inhibitor, single point]
29 | Cc1ccc(N2CC(NC(=O)c3cc4ccccc4o3)CC2=O)cc1C (stereo not drawn) | inactive: 2.83% | 
46 | N#CC1=C2SCN(Cc3ccco3)CN2C(=O)CC1c1cccc2ccccc12 (stereo not drawn) |  | active: 44.7 µM

The results go on:

Row | SMILES | activity change, negative = inhibition | Potency
47 | COc1ccc2ccccc2c1/C=N\NC(=O)c1ccc(C)s1 | inactive: -2.81% | 
48 | CC(=O)n1cc(N(C(=O)CCl)c2ccccc2)c2ccccc21 | inactive: 2.81% | 
49 | Cc1ccc(-c2nn3c(C)nnc3s2)cc1NC(=O)c1ccc(-c2cccc(Cl)c2)o1 |  | active: 7.08 µM
50 | CCCc1ccc2oc(C(=O)N3CCN(c4cnccn4)CC3)c(C)c2c1 |  | inconclusive: 15.8 µM [inhibitor, single point]
51 | CS(=O)(=O)N1N=C(c2cccs2)CC1c1ccccc1O (stereo not drawn) |  | inconclusive: 0.501 µM [inhibitor, full curve, poor fit]
52 | Oc1ccccc1C(Nc1nccs1)c1ccc2cccnc2c1O (stereo not drawn) |  | inconclusive: 50.1 µM [inhibitor, single point]
53 | COc1ccc(C(=O)NNC(=O)C(=O)Nc2cccc3ccccc23)cc1 |  | inconclusive: 35.5 µM [inhibitor, full curve]
54 | COc1ccc(C(=O)Nc2ccc(C(=O)OCc3cc(=O)n4nc(C5CC5)sc4n3)cc2)cc1 |  | inconclusive: 7.08 µM [inhibitor, full curve]
55 | CC(/C=C\c1cccnc1)=C/C(=O)O |  | inactive and active: 28.2 µM
56 | COc1ccc(Nc2oc(/C=C/c3cccc(OC)c3)nc2C#N)cc1 |  | inconclusive: 63.1 µM [inhibitor, single point]
57 | O=C(c1ccco1)N1CCN(c2ccc([N+](=O)[O-])cc2F)CC1 |  | inconclusive: 100 µM [inhibitor, single point]
58 | CCc1cccc(C)c1NC(=O)CN1CCCN(Cc2ccccc2Cl)S1(=O)=O | inactive: 39% | 
59 | Cc1cc(NC(=O)c2cc([N+](=O)[O-])cc([N+](=O)[O-])c2C)no1 |  | inconclusive: 22.4 µM [inhibitor, full curve]
60 | COCc1cc(C)nc(N/N=C/c2ccc(-c3ccc(C(=O)O)c(Cl)c3)o2)c1C#N |  | active: 22.4 µM
61 | CCOc1ccc2nc(NC(=O)CCC(=O)c3cccs3)sc2c1 |  | inconclusive: 20 µM [inhibitor, full curve]
62 | O=C1NC(=O)/C(=C\c2ccc(O)cc2O)S1 |  | active: 1.58 µM
63 | COc1cc(C2c3c(-c4ccccc4O)n[nH]c3C(=O)N2Cc2ccco2)ccc1OCC(C)C (stereo not drawn) |  | inconclusive: 56.2 µM [inhibitor, partial curve, poor fit]
64 | CCOC(=O)c1cc2sccc2n1CC(=O)O |  | inconclusive: 31.6 µM [inhibitor, partial curve]
65 | CCCc1nn2c(=O)cc(COc3ccc(/C=C(\C#N)C(=O)Nc4ccccc4)cc3)nc2s1 |  | inconclusive: 2 µM [inhibitor, partial curve, poor fit]
66 | CCCCc1ncc(CN2CCN(Cc3ccc(C)cc3)C(CCO)C2)[nH]1 (stereo not drawn) |  | inconclusive: 20 µM [inhibitor, partial curve, poor fit]
67 | O=C1/C(=C\c2ccncc2)SC(=S)N1C1CCCCC1 |  | active: 79.4 µM
68 | C=CCn1c(=O)/c(=C/c2ccc(C)o2)s/c1=C(/C#N)C(=O)c1ccccc1 |  | inconclusive: 15.8 µM [inhibitor, full curve]
